# Experimental data as given in patent publication US20220387466A1, “COMPOUNDS AND PHARMACEUTICAL COMPOSITIONS FOR PREVENTION AND/OR TREATMENT OF DYSBIOSIS AND ANTIBACTERIAL ANTIDOTES FOR MICROBIOME-PROTECTION” (priority 2019, published 2022).
# At least one structure is not confirmed: it was looked up by name or label, or the drawing left a doubt.
# Tests used:
# B. uniformis = assay: Validation of microbiome-protective antagonists (concentration-dependent growth rescue); assay type: cell-based, Bacteroides uniformis; conditions: Doxycycline 0.039 μM constant, antagonist gradient, normalized AUC >0.25 = growth rescue
# Method: Validation of microbiome-protective antagonists: In a first step, the inventors kept the erythromycin/doxycycline concentration constant (0.625 μM for erythromycin, 0.078 μM (B. vulgates)/0.039 μM (B. uniformis) for doxycycline) and tested concentration gradients of the potential antagonists with ranges depending on the antagonist's solubility. Compounds were purchased from independent vendors and dissolved at 100× starting concentration in DMSO. Eight 2-fold serial dilutions were prepared in 96-well plates with each row containing a different antagonist, sufficient control DMSO wells and wells with just the respective antibiotic (‘antibiotic-only’ control). These master plates were diluted in MGAM medium (50 μl) to 2×assay concentration and 25 μl freshly prepared antibiotic solution (4× test concentration) was added. Plates were pre-reduced overnight in an anaerobic chamber and inoculated with 25 μl of overnight cultures (prepared as described under “Growth conditions”) to reach a starting OD578 of 0.01 and 1% DMSO concentration. Growth was monitored hourly for 24 h after 30 sec of linear shaking. Experiments were performed in biological triplicates. For analysis, growth curves were converted into normalized AUCs (see above). […]
# E. coli ED1a = assay: Killing curves and survival assay (CFU counting); assay type: cell-based, Escherichia coli; conditions: 5-hour treatment at 5×MIC
smiles,measurement,setting,value
Cc1ccc(-c2cc(C(F)(F)F)nn2-c2ccc(S(N)(=O)=O)cc2)cc1 [Celecoxib],Validation,B. uniformis,FALSE
C[C@H]1c2cccc(O)c2C(=O)C2=C(O)[C@]3(O)C(=O)C(C(N)=O)=C(O)[C@@H](N(C)C)[C@@H]3[C@@H](O)[C@@H]21 [doxycycline],killing of commensal E. coli ED1a,E. coli ED1a,effectively killed
